In patent US20260028406A1 one finds binding data, which are given here for five molecules.

Results are given in words; binding and its absence hold for the method and conditions named. Some results given as binding are weak or reduced against the parent protein; the word gives no strength. For part of these data: Tags and fused reporters may be left off the sequences shown.

For experiment [1], the target named is tenascin C in tumor ECM (LM2 tumors and lung metastases grown in NSG mice) (Homo sapiens (Human)) (UniProt P24821). Kind of experiment: immunohistochemistry (FIG. 12).
Experiment [2] shares this target. Kind of experiment: immunohistochemistry of lung metastases of LM2-ZsGreen-Luciferase cells in NSG mice.
For experiment [3] the target is unchanged. Nature of the experiment: ex vivo fluorescence imaging by 2-photon microscopy after injection of Texas Red-labelled VHH.
Experiment [4] has the same target. Nature of the experiment: ex vivo two-photon microscopy of orthotopic LM2 tumors after injection of 20 ug Texas red-labelled VHH.
The target is the same in experiment [5]. Kind of experiment: in vivo binding by immuno-PET/CT with 64Cu-labeled NJT6 in mice bearing LM2 tumors and metastases.

B1: NJT6 nanobody (VHH) (VHH)
VHH: QVQLVETGGDLVQPGGSLRLSCAASGLTLDYYAIGWVRQAPGKEREGVSCITPQDGNTYYDDSVMGRFTILRDNAKNMVYLQMNNLKPEDTAVYFCAAAGALTLDPSEYEYWGQGTQVTVSS
For the molecule B1, the binding entry in experiment [1] and in experiment [2] was “binds” throughout.

B2: NJT6 site-specifically labelled with Texas Red via sortase-mediated tagging (VHH)
VHH: B1 VHH
modifications: Texas Red attached site-specifically via sortase-mediated tagging
With B2, the binding result in experiment [3] and in experiment [4] was “binds” throughout.

B3: 64Cu-labeled NJT6 (VHH)
VHH: B1 VHH
modifications: 64Cu label attached using sortagging
On to B3, for which the binding entry in experiment [5] is “binds”.

B4: NJT4 nanobody (VHH) (VHH)
VHH: QVQLVESGGGLVQPGGSLRLSCAASGFTFSSYTMRWYRQAPGKERELVAFIGVAGGSTKYADSVKGRFTISRDNTKNTVYLQMNTLKPEDTAVYYCYAPLTPYWGQGTQVTVSS
Take B4: the binding entry in experiment [1] and in experiment [2] was “binds” each time.

B5: NJT4 site-specifically labelled with Texas Red via sortase-mediated tagging (VHH)
VHH: B4 VHH
modifications: Texas Red attached site-specifically via sortase-mediated tagging
As for B5, the binding entry in experiment [3] and in experiment [4] was “binds” each time.
